Experimental data: PubChem BioAssay AID1347426 (Functional Genomics Laboratory (NCATS/FGL), 2020)
Among all 31,000 sequences or so, about 1,400 (4.5%) were called active.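 The calls were made as follows: active = median seed-adjusted z-score above 1 or below -1; inactive = the rest.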 The list shows a part of the results.

Assay: Novel Modifiers of Survival Motor Neuron (SMN) Protein: Gene Identification via Genome-wide siRNA Screen;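 also: luminescence tracks full-length SMN protein made from the SMN2 reporter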
Details: HEK293T SMN2-luciferase reporter, siRNA knockdown, 72 h; actives lie on both sides
In short: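 HEK293T cells stably expressing an SMN2 splicing/cDNA-luciferase reporter were reverse-transfected with a druggable-genome siRNA library and read by luminescence at 72 hours; hits defined by MAD score above 1.0 or below -1.0.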

Row | Sequence | median seed-adjusted z-score
1 | GCAUUGCAAGAGUGGAGAATT against KCNK10 | inactive: 0.239
2 | GAAUCCCGCUGACAAACCATT against MINK1 | inactive: -0.522
3 | CCACACCUACUGAGAUUAUTT against MORF4L2 | inactive: 0.389
4 | GCAGAUAAGAUCAAGAUCATT against SRPK3 | inactive: -0.643
5 | GAACCGGUACAAAACCAUATT against PTPN5 | inactive: 0.22
6 | CAACUAUCCACAACUCGAATT against DNAJC13 | inactive: -0.12
7 | CACUAGAUCGCGAUAAUAATT against DDB1 | inactive: 0.231
8 | CAAUAACAAUUUCGGACAATT against TMPRSS11A | inactive: 0
9 | GGCUGUACGUGAAUAGUGUTT against TIAM1 | inactive: 0.13
10 | GGCUGUUUCGGGACAAGUATT against SRPR | inactive: 0.242
11 | GGAUACAGAGACCAAUUUATT against DONSON | inactive: -0.882
12 | GCAUAACAAAUACCUUAGATT against ERCC5 | inactive: -0.0811
13 | GAGCCUUUCGGAGCAGUUATT against ZNF740 | inactive: -0.914
14 | CGAACGACAGUUCCACAAATT against PDE6A | active: 1.25
15 | GGCUCGUGGGAUGAACAAATT against OSBP2 | inactive: -0.568
16 | GGCACUUAUGUAUAAACCATT against ZNF793 | inactive: 0.448
17 | GCAUCGAUUUUCACUAUUUTT against PTPRM | inactive: 0
18 | AAUUGAAGAUGGAAGUUGATT against GNGT1 | inactive: -0.0382
19 | CAAUCACCGCUGUGGUAAATT against UCP1 | inactive: -0.0744
20 | GCAGGAGUUUGAUAAGCUUTT against TRIM35 | inactive: -0.0463
21 | CCGUAGGAUUUACAGAAUATT against MOBKL3 | inactive: 0.575
22 | GCCUGUUCCAAACCCAUUATT against FHL5 | inactive: 0.0859

Part of the list above, as tab-separated lines.
Row	Sequence	median seed-adjusted z-score
4	GCAGAUAAGAUCAAGAUCATT against SRPK3	inactive: -0.643
12	GCAUAACAAAUACCUUAGATT against ERCC5	inactive: -0.0811

Carrying on:

Row | Sequence | median seed-adjusted z-score
23 | GCAUUGCUAUGGAGAUAGATT against SIN3A | inactive: -0.384
24 | CAUUAGCAAUUUCAGCAAATT against UEVLD | inactive: -0.0682
25 | CGUGAUCCUUUACACGUGATT against RTN4IP1 | inactive: -0.00582
26 | GGAUAGCUGGUAUUCGAAATT against KLHL7 | inactive: -0.567
27 | CUGUAAAAGUGGGAAUGAATT against PEPD | inactive: -0.00401
28 | CACGGCAAGUGGAAAGAUATT against SERPINA2 | inactive: 0.285
29 | GGAACAAGGUCUAAUUUGUTT against CAV3 | inactive: 0
30 | GAUCAUUGCUGGGAAUCUATT against GPR52 | active: -1.17
31 | UGCGAUUACUGAUCCGCAATT against SAG | inactive: 0
32 | CUGCAUUUGUGGUAGCUGUTT against NDUFB3 | inactive: -0.00982
33 | GGCUGACCUCAUCUGCUUUTT against VKORC1 | inactive: -0.754
34 | UGCUGCAUGUUCUUUGUUUTT against CCL24 | inactive: 0
35 | CAAUUUUGCAGGCAACUUUTT against SCYE1 | inactive: 0.437
36 | GCAUCCAUCAUUCGACUUATT against NPAS3 | inactive: -0.0316
37 | CGGAAUUUGUUGCUCCAGATT against DAPK2 | inactive: 0.268
38 | GCAGGCUACCGGAAAUCUATT against EHD4 | inactive: 0.333
39 | UGAUUUCGGUGCUCAAGUATT against SLC26A9 | inactive: 0.223
40 | CAGACAAGGAGGAAUUUAATT against ZSCAN10 | inactive: 0
41 | AGAAGAAGCUUGGAUGACATT against ZNF22 | inactive: 0.47
42 | GAAUCAACAAGAUUGGGAATT against CBS | inactive: -0.0696
43 | AGAGCGUGCGUCCACAAAATT against MATN4 | inactive: -0.262
44 | CAGGGAGCCUUAAACUUAUTT against CDC25C | inactive: 0.256

Row | Sequence | median seed-adjusted z-score
45 | CAGUCUGCCUUGGAUCAAATT against CPA3 | inactive: 0.192
46 | ACCCUUUCGUGGAACAAGATT against NTNG2 | inactive: 0.403
47 | CCUCAGAGCUUGGUCGGAATT against TCOF1 | inactive: 0.819
48 | UACUCCACCUUGAAAGAUATT against TBC1D13 | inactive: 0.33
49 | CCAUCGCUUUCAGCAGACATT against DLX6 | inactive: 0.0275
50 | CCAACAAGCAGAAUCAGAATT against MPRIP | inactive: 0.238
51 | GCCUUUCAGCAUGCGGUUATT against GDPD1 | inactive: 0.527
52 | GAAGUUCACUUUAGAUAUUTT against SPINT4 | inactive: 0.354
53 | AAUUCUACGAGUCCAAGUATT against GPS1 | inactive: 0.205
54 | CAAUGCUUUCGGCUCCAAATT against TBX4 | inactive: 0.968
55 | GGGACGAGAUCAACGAGAATT against KIF5A | inactive: -0.348
56 | AGAGUGUCCAGAUUGAGAATT against SLC5A10 | inactive: 0.669
57 | ACACCUGCCUGGUAGAGAATT against FGFR4 | inactive: 0.0825
58 | GUAAAGCGUGGAAUCGUUATT against ANPEP | inactive: 0.252
59 | GGACGAACCUUGACAGGAUTT against GATM | inactive: 0.182
60 | GCCUAGGUGCCGAAUGGAATT against SOX14 | inactive: -0.296
61 | CCACCAACGAAUACGUCUATT against PRKCSH | inactive: -0.0512
62 | GGUGCCUUCUUAUGACCUUTT against STAT6 | inactive: 0.28
63 | GCAAAGAUAGCGAGAAAUATT against TBX1 | inactive: -0.744
64 | CGAUGUUGUGAUAAGGUUATT against ST3GAL5 | inactive: 0.11
65 | CAGUGAAUUUGGUAAGGUUTT against SLC9A11 | inactive: -0.12
66 | GGAUGUAAAUUUCGAGUUUTT against PMS2 | inactive: -0.162

Row | Sequence | median seed-adjusted z-score
67 | GGUAGUCAAUCAGUACCAATT against FAM48A | inactive: -0.506
68 | CCAUGGAUGAGACUCCGUATT against PPP1R10 | active: 1.41
69 | GGAUAACACUAAGUUUAGATT against SFRS1 | active: -1.66
70 | GAAACACUCGUUAUCGAAATT against ATP13A2 | inactive: 0.461
71 | GACCAUCUCUCAGAAGUUUTT against ODF1 | inactive: 0.912
72 | CCCAUACACUGGUCAGACATT against ILDR1 | inactive: -0.318
73 | CUGUUUGGGUUGAUCAACATT against PEX1 | inactive: 0.227
74 | CACCCUUUCUAAACAUGAUTT against ZNF33B | inactive: -0.279
75 | GCAAGAUUCCAUUCACGUUTT against ORC2L | inactive: -0.101
76 | GAUCGUUGAUGAGAAAGUUTT against LARP1 | inactive: 0.251
77 | CAUUCAGCCUUGAUAUUGATT against GPR107 | inactive: 0
78 | GGCUGUUGGUAUGAUCCUATT against SLC15A2 | inactive: 0.322
79 | ACAGCUCACUGAACCCUGUTT against ADRA2B | inactive: 0.00853
80 | GGAAGAACAGGUUCCGGAATT against ABCC12 | inactive: 0.204
81 | GAAUUUGCCUGUCUAAAAUTT against NR2E1 | inactive: 0.559
82 | GAGUAAACCUCGAAACCGATT against MAP3K13 | inactive: -0.121
83 | GCUGGAAUUUGUUACGCAATT against MTAP | inactive: -0.0621
84 | GGAUCCUAAUUGUCAUCAUTT against B3GAT2 | inactive: 0.33
85 | CAGCCUCACCAAGCACAAATT against ZNF358 | inactive: 0.359
86 | AUCGACUUCUGGAACAUAATT against KCNC2 | inactive: 0.3
87 | GGCAAACGAGUGUGCUUCATT against FAM47B | inactive: -0.0631
88 | GGAUAUUCUUCUCCGCUUATT against ACSL4 | inactive: -0.0582

Row | Sequence | median seed-adjusted z-score
89 | CGGAGACCACGUUUCAAAATT against TERT | inactive: -0.698
90 | GUAUGGUGAUGACCUAGAATT against SNW1 | inactive: 0.148
91 | CAGCUGCAAUUCUAGCUAATT against RETSAT | active: -1.7
92 | CGCAGACCAACAAGACUUCTT against DTX2 | inactive: 0.0597
93 | CCAGCAAAGUUUGACCAAATT against ZBTB20 | inactive: -0.521
94 | CACUAAUGCUUAUCAAUAATT against POLD4 | inactive: 0.225
95 | CGAUAACUGUAAUCCUGUUTT against ZDHHC7 | inactive: 0.0962
96 | GUUACUUUGUGACAAAUGATT against HS3ST4 | inactive: 0.284
97 | GGGCGAUCUUGACAGGAAATT against PPARG | inactive: -0.0309
98 | GGAACAUACUGGACCUGGUTT against PKD2L1 | inactive: 0.445
99 | GGAUCCAUCUGGUUACAAUTT against LIG1 | inactive: 0.722
100 | GGAGUUAAGAAUAUUAUGATT against VAMP8 | inactive: -0.184
101 | GCCUUAUGAUGGAAGAGAUTT against EYA2 | inactive: 0.111
102 | CUGUCAAUGUUAUUACUCUTT against TSG101 | active: 1.48
103 | GCUGCAUUCGCGAUUCUAUTT against CIB2 | inactive: 0.569
104 | UGUAUACAGUAACAACAUUTT against FAM12A | inactive: 0.08
105 | GCACCUUCCUGCUAAGAUUTT against STAT3 | inactive: 0
106 | GCACUAAGGUGAAGAGUAATT against MTMR7 | inactive: -0.207
107 | CGGAAGAGUUUUUCGACUATT against BTRC | inactive: -0.0819
108 | GCACAAGACAUACGAUUUUTT against CHST10 | inactive: 0.115

Numbers 95 through 96, quoted:
Row | Sequence | median seed-adjusted z-score
95 | CGAUAACUGUAAUCCUGUUTT against ZDHHC7 | inactive: 0.0962
96 | GUUACUUUGUGACAAAUGATT against HS3ST4 | inactive: 0.284

Reprinted at random: two records from the list.
Row | Sequence | median seed-adjusted z-score
92 | CGCAGACCAACAAGACUUCTT against DTX2 | inactive: 0.0597
106 | GCACUAAGGUGAAGAGUAATT against MTMR7 | inactive: -0.207
